Results deposited as PubChem BioAssay AID602196 (INSERM, 2012)

- Assay: 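Knock-downs that protect lung cancer cells from cisplatin or sensitise them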
- Cells: human A549 lung cancer cells
- Reagent: siRNA pair against human genes
- Time to read-out: 48 h transfection before cisplatin; time from cisplatin to read-out not stated
- Conditions: cisplatin at a dose killing half of control-siRNA cells; exact dose and duration not given
- Measured: 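Shift in cisplatin death relative to control siRNA, from -50 (all cells die) to +50 (no cells die); siRNAs harmful on their own scored 0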
- Reading the numbers: two-siRNA summed score (-2 to +2): higher = both siRNAs protect from cisplatin killing; -2 means both sensitise; mean protection from cisplatin (shift in death) and protection from cisplatin (shift in death), siRNA C and protection from cisplatin (shift in death), siRNA D: higher = protection from cisplatin killing
- Call rule: 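Each siRNA scores 0 if harmful alone by LDH or WST-1, otherwise +1 if it reduces and -1 if it increases cisplatin killing; a gene is active when both siRNAs agree (sum +2 or -2)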
- Meaning of the calls: active = both siRNAs shift cisplatin killing the same way; inactive = no consistent shift, or siRNA harmful alone
The whole screen tested about 23,000 reagents; shown is a random part of them. Over the whole deposit, 455 (2%) were called active. 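Active includes both protection and sensitisation; some change values fall well beyond the stated -50 to +50 range.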 The record does not give: the amount of reagent.

| two-siRNA summed score (-2 to +2) | mean protection from cisplatin (shift in death) (%) | protection from cisplatin (shift in death), siRNA C (%) | protection from cisplatin (shift in death), siRNA D (%) | activity call | Target gene |
| --- | --- | --- | --- | --- | --- |
| 0 | -10.4 | -21.3 | 0.4 | inactive | EBAG9 (GeneID 9166) |
| 0 | -8.8 | -8.4 | -9.1 | inactive | LOC439970 |
| 1 | 5.8 | -7.5 | 19 | inactive | PCYOX1 (GeneID 51449) |
| 0 | -3.3 | -5.4 | -1.3 | inactive | SHISAL1 (GeneID 85352) |
| 1 | 11 | 15.9 | 6 | inactive | LOC387764 |
| 1 | -3.5 | -19.2 | 12.1 | inactive | GYG1 (GeneID 2992) |
| 2 | 25 | 20.7 | 29.2 | active | FOXN2 (GeneID 3344) |
| 0 | -11.4 | -11.9 | -10.9 | inactive | TRIM62 (GeneID 55223) |
| 1 | 18.5 | 16.5 | 20.6 | inactive | LOC442043 |
| -2 | -17.9 | -16.6 | -19.2 | active | KIF3A (GeneID 11127) |
| 0 | 4.6 | -4.4 | 13.7 | inactive | FUT3 (GeneID 2525) |
| 0 | 7.5 | 12.2 | 2.9 | inactive | LOC440179 |
| 0 | 20.4 | 19.5 | 21.3 | inactive | BLOC1S2 (GeneID 282991) |
| 0 | 13.5 | 11.9 | 15.1 | inactive | ARRDC2 (GeneID 27106) |
| -1 | -18.8 | -13 | -24.6 | inactive | FGFR1OP2 (GeneID 26127) |
| 0 | 16 | 5.8 | 26.2 | inactive | INTS11 (GeneID 54973) |
| 0 | 9.3 | 11.9 | 6.7 | inactive | EIF4A1 (GeneID 1973) |
| 0 | 5.3 | 5.8 | 4.8 | inactive | SARAF (GeneID 51669) |
| 0 | -1.6 | -9 | 5.8 | inactive | UCP3 (GeneID 7352) |
| 0 | 0.7 | 15.7 | -14.4 | inactive | MT1H (GeneID 4496) |
| 0 | 8.2 | 6.7 | 9.7 | inactive | CRIPAK (retired record) (GeneID 285464) |
| 0 | 1.3 | 9.3 | -6.7 | inactive | YIPF2 (GeneID 78992) |
| 1 | 2.5 | 16.1 | -11 | inactive | BAK1 (GeneID 578) |
| 0 | 3.9 | -2.3 | 10.2 | inactive | PRKY (GeneID 5616) |
| 2 | 31.1 | 46.5 | 15.7 | active | OTOP3 (GeneID 347741) |
| 0 | 1.8 | 0.9 | 2.7 | inactive | TMEM9 (GeneID 252839) |
| 0 | 5.6 | 5.9 | 5.3 | inactive | GARNL3 (GeneID 84253) |
| 1 | 12.3 | 9.6 | 15 | inactive | FOXJ3 (GeneID 22887) |
| 1 | 8.8 | 2.5 | 15 | inactive | ZNF101 (GeneID 94039) |
| 0 | 2.7 | -1 | 6.4 | inactive | LOC441063 |
| 0 | 14 | 23.3 | 4.6 | inactive | LMO3 (GeneID 55885) |
| 1 | 28.8 | 15.2 | 42.3 | inactive | CEP135 (GeneID 9662) |
| 0 | -5.5 | -4.7 | -6.4 | inactive | GPRASP1 (GeneID 9737) |
| 0 | 2.3 | 3.8 | 0.8 | inactive | FAM111B (GeneID 374393) |
| 1 | 17.6 | 15.6 | 19.5 | inactive | CDH6 (GeneID 1004) |
| -1 | -17 | -33.3 | -0.7 | inactive | POMC (GeneID 5443) |
| 0 | 3.7 | 8.6 | -1.3 | inactive | DKC1 (GeneID 1736) |
| 0 | -4.6 | -10.4 | 1.3 | inactive | LOC440447 |
| 0 | 6.2 | -0.9 | 13.4 | inactive | ALDOA (GeneID 226) |
| 1 | 11.6 | 4.7 | 18.6 | inactive | TAS2R20 (GeneID 259295) |
| 0 | 7.3 | 5.2 | 9.4 | inactive | LOC442117 |
| -1 | -7.7 | -28.7 | 13.3 | inactive | GAPDHS (GeneID 26330) |
| 0 | -5.1 | -3.9 | -6.2 | inactive | KLF3 (GeneID 51274) |
| -1 | -6.8 | 5.5 | -19.1 | inactive | GFRAL (GeneID 389400) |
| 0 | -2.8 | 4.9 | -10.4 | inactive | HACL1 (GeneID 26061) |
| 1 | 10.7 | 7.5 | 13.9 | inactive | LOC221344 |

Continued; the last 5 above are carried over.
| two-siRNA summed score (-2 to +2) | mean protection from cisplatin (shift in death) (%) | protection from cisplatin (shift in death), siRNA C (%) | protection from cisplatin (shift in death), siRNA D (%) | activity call | Target gene |
| --- | --- | --- | --- | --- | --- |
| -1 | -7.7 | -28.7 | 13.3 | inactive | GAPDHS (GeneID 26330) |
| 0 | -5.1 | -3.9 | -6.2 | inactive | KLF3 (GeneID 51274) |
| -1 | -6.8 | 5.5 | -19.1 | inactive | GFRAL (GeneID 389400) |
| 0 | -2.8 | 4.9 | -10.4 | inactive | HACL1 (GeneID 26061) |
| 1 | 10.7 | 7.5 | 13.9 | inactive | LOC221344 |
| 0 | 7.4 | 8.1 | 6.7 | inactive | KCTD7 (GeneID 154881) |
| 0 | 19.5 | 11.4 | 27.6 | inactive | METRNL (GeneID 284207) |
| 1 | 7.6 | -2 | 17.2 | inactive | ST13 (GeneID 6767) |
| -1 | -14 | -9.1 | -19 | inactive | LPAR4 (GeneID 2846) |
| -1 | -3.9 | 4.9 | -12.7 | inactive | FAM133B (GeneID 257415) |
| 0 | 13.5 | 13.9 | 13.2 | inactive | ZNF460 (GeneID 10794) |
| -1 | -5.3 | -5.5 | -5.1 | inactive | HENMT1 (GeneID 113802) |
| 0 | 10.8 | 5.2 | 16.4 | inactive | ARFGEF2 (GeneID 10564) |
| 0 | -0.4 | 0.8 | -1.7 | inactive | LRRC34 (GeneID 151827) |
| -1 | -13.4 | -23.4 | -3.3 | inactive | CRHR2 (GeneID 1395) |
| 0 | 10.4 | 3.5 | 17.3 | inactive | LINC02796 (GeneID 339468) |
| 1 | 9.7 | 3.6 | 15.8 | inactive | PPIL3 (GeneID 53938) |
| 0 | -12.7 | -12.5 | -12.9 | inactive | EDEM3 (GeneID 80267) |
| 0 | -1.6 | -7 | 3.8 | inactive | LOC389386 |
| 1 | 15.4 | 11.5 | 19.4 | inactive | ARAF (GeneID 369) |
| 0 | 10.3 | 11.3 | 9.4 | inactive | HBG1 (GeneID 3047) |
| 0 | 2.5 | -0.6 | 5.5 | inactive | ANKLE1 (GeneID 126549) |
| 0 | 9.7 | 8 | 11.3 | inactive | LOC440702 |
| -1 | -6.1 | -18.8 | 6.6 | inactive | SLC6A16 (GeneID 28968) |
| 1 | 10.7 | 16.1 | 5.2 | inactive | SCRG1 (GeneID 11341) |
| 0 | 7.8 | 2.8 | 12.9 | inactive | LOC387946 |
| 0 | 12.1 | 13.2 | 11.1 | inactive | SPIRE2 (GeneID 84501) |
| 0 | 6.7 | -0.1 | 13.6 | inactive | AGA (GeneID 175) |
| 0 | 6.6 | 2.8 | 10.4 | inactive | LTA4H (GeneID 4048) |
| 0 | 0.5 | -7 | 7.9 | inactive | LOC143243 |
| 0 | -3.2 | -5.2 | -1.2 | inactive | PPP1R12A (GeneID 4659) |
| 0 | 8.2 | 15.8 | 0.7 | inactive | SMN2 (GeneID 6607) |
